# Measured values as given in article PMC11445491.
# Chains of the proteins cited; added tags and fusions are not shown.
# UniProt Q9Y572: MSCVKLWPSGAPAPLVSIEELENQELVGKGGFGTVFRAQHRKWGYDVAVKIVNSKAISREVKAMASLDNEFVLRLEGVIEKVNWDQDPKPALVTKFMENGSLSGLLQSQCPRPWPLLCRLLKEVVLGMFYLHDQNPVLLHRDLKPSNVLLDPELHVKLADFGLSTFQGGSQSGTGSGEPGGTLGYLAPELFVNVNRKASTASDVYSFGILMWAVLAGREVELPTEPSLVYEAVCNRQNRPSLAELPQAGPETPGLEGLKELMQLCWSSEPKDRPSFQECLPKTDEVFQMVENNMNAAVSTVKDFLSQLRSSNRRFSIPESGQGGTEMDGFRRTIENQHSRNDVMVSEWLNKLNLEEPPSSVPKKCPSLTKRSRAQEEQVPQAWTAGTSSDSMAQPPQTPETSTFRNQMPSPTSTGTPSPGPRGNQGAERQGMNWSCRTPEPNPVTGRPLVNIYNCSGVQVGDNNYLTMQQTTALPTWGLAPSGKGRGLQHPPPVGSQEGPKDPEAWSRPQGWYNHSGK
# UniProt Q13546: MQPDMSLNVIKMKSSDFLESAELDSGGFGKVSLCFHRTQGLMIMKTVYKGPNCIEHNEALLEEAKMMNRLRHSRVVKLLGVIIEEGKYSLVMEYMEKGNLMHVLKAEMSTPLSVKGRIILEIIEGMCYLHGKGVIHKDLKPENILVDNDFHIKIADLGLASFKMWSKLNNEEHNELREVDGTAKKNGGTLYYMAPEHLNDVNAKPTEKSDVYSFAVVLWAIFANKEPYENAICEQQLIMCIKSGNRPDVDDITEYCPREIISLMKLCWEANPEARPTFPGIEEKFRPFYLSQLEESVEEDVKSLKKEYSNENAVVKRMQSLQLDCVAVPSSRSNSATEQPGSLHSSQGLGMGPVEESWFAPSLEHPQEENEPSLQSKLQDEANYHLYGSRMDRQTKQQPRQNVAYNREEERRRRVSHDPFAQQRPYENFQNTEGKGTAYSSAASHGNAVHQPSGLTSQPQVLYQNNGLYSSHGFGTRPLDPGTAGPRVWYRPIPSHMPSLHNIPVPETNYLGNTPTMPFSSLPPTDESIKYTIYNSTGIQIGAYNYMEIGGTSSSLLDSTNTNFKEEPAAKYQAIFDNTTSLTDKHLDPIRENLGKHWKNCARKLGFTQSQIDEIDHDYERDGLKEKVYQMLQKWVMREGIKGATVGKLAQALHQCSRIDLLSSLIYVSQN
# These are yes or no findings as the source states them, for the method shown. In cells and extracts the contact can be indirect. Some results given as binding are weak or reduced against the parent protein; the word gives no strength.
# Biological target: RIPK3, endogenous (human (endogenous in HT-29)) (UniProt Q9Y572)
# Experiment: co-IP; HT-29 cells, endogenous necrosome; T/Bi/Z for 3 h with or without 20 μM erlotinib or gefitinib; anti-RIPK3 antibodies and protein G agarose
substance,measurement,value
"receptor interacting protein kinase 1 (RIPK1), endogenous (from UniProt Q13546 1-671)",binding,binds
